Data as given in publication PMC8733394.
Results are given in words; binding and its absence hold for the method and conditions named. For some of these results: In cells and extracts the contact can be indirect. Some results given as binding are weak or reduced against the parent protein; the word gives no strength. Where a sequence is shown, tags or fusion partners need not be part of it.

T1: tu1 I-1-BD (TSN1 fragment, 1-380 amino acids) (Arabidopsis thaliana) (UniProt Q8VZG7)
T1 sequence: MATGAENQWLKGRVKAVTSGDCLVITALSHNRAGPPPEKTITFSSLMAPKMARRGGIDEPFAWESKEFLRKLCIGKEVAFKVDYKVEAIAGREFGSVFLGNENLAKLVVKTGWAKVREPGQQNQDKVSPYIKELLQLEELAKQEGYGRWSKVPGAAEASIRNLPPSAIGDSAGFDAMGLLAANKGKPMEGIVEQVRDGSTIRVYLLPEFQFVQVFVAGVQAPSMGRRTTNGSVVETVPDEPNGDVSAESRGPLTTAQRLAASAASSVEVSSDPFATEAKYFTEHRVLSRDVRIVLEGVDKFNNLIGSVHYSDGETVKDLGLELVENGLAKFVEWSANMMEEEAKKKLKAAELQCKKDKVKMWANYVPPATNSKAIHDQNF

T2: tu1 I-2-BD (TSN1 fragment, 381-720 amino acids) (Arabidopsis thaliana) (UniProt Q8VZG7)
T2 sequence: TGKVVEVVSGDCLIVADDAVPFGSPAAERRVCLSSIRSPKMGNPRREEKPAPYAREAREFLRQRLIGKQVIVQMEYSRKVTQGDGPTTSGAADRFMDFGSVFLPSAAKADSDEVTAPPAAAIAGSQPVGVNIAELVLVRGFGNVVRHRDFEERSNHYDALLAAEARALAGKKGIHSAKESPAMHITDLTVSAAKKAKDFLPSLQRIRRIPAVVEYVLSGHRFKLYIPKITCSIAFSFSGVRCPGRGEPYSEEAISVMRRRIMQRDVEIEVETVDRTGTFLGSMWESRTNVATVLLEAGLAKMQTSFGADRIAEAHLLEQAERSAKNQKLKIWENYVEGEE

T3: tu1 II-BD (TSN1 C-terminal fragment, 721-970 amino acids) (Arabidopsis thaliana) (UniProt Q8VZG7)
T3 sequence: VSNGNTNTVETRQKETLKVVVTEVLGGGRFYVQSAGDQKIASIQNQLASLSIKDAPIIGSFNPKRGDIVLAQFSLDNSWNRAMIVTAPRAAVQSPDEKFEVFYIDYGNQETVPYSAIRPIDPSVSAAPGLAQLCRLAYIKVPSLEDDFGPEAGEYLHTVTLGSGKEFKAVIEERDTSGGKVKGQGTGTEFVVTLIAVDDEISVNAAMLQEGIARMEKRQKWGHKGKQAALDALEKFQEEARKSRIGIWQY

T4: TSN1-NLuc (Arabidopsis thaliana) (UniProt Q8VZG7)
T4 sequence: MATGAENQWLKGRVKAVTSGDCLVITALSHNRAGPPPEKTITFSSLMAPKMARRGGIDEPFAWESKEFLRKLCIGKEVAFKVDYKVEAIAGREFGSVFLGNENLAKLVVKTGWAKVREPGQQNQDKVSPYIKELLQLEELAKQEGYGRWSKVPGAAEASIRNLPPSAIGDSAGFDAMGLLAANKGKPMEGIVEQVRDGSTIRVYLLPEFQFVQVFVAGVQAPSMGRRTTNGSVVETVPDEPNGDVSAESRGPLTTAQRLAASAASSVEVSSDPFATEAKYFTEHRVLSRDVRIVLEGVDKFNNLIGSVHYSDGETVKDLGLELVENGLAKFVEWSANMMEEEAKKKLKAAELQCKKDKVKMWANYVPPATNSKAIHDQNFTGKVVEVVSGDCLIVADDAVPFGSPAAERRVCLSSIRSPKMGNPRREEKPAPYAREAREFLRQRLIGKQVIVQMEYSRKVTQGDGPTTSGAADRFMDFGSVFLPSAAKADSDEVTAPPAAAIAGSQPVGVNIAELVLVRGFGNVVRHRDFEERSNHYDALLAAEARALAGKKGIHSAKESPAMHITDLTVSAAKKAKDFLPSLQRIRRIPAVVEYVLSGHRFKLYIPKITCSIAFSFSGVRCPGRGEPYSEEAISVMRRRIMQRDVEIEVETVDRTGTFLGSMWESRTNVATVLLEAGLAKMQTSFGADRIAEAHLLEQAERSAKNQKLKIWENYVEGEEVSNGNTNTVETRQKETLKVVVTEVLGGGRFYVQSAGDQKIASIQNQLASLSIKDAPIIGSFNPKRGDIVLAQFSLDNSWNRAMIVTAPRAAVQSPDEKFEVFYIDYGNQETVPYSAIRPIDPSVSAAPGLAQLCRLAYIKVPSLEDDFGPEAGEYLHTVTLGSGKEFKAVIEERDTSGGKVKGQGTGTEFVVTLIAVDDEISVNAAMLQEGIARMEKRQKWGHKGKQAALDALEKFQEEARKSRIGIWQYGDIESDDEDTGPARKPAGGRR


Columns and labels:
[1] = biological target: T1, tu1 I-1-BD (TSN1 fragment, 1-380 amino acids) (Arabidopsis thaliana); experiment: two-hybrid; yeast AH109; RH31 in pGADT-7 (AD), TSN1 fragments in pGBKT-7 (BD); 30 C; growth on selective medium SD/-L-T-A
[2] = biological target: T2, tu1 I-2-BD (TSN1 fragment, 381-720 amino acids) (Arabidopsis thaliana); experiment: as above
[3] = biological target: T3, tu1 II-BD (TSN1 C-terminal fragment, 721-970 amino acids) (Arabidopsis thaliana); experiment: as above
[4] = biological target: T4, TSN1-NLuc (Arabidopsis thaliana); experiment: split reporter; firefly luciferase complementation imaging (LCI); CLuc-RH31, TSN1-NLuc and P19 co-infiltrated by Agrobacterium GV3101 into N. benthamiana leaves, 23 C for 3 days, CCD imaging of LUC activity

| Binder | binding [1] | binding [2] | binding [3] | binding [4] |
| --- | --- | --- | --- | --- |
| RH31-AD (protein, UniProt Q9FFQ1 1-716) MPLNFPLRIRFFAHSLSGTHLSYNTSSSVPLLFRIFSSGLNHFEFGSRINFSTRPNRDQPEFERRIRDGGEIRASKSLIEDEEELSNWVSGFRTGSSRGILKSDDEDEEDRSRGRNQEKRGIRNQVDSFRNKRYGGDRERGFNSRIQGKSSEASFRGRKETSFSRDREDEKGLRKREDLRLEDESSDEDVKSLVMGDIGDLLSEDDEEEDQDYDFLKKKAVSAFGFDKENVIEADKTRNANDSYLTKTRFDHYPLSPLSLKAIKDAGYETMTVVQEATLPIILKGKDVLAKAKTGTGKTVAFLLPSIEVVVKSPPTSPDNKRPPILALVICPTRELANQAATEANTLLKYHPSIGVQVVIGGTRLGLEQKRMQTNPCQILVATPGRLKDHIENTPGFATRLKGVKVLVLDEADHLLDMGFRKDIERIISAVPKERQTFLFSATVPEEVRQICLVALRRDHEFVNCVHEGTIETHQQVRQMHMIASLDRHFSLLYTLLREHIMGNVDYKVIVFCTTAMVTKLVADLLGELNLNVREIHSRKPQSYRTRVSNEFRKSKGLILVTSDVSARGVDYPDVTLVLQVGLPKDREQYIHRLGRTGRKGKEGEGILLLAPWEEYFLSSLKDLPITKSPLPSIDPETVKKVQKALCHVEMRNKEAAYQAWLGYYNSQKMIGRDKDRLVELANEFSRSMGLDNPPAIPKLILGKMGLKNVPGLRAK | no binding | no binding | binds |  |
| CLuc-RH31 (protein, UniProt Q9FFQ1 1-716) MPLNFPLRIRFFAHSLSGTHLSYNTSSSVPLLFRIFSSGLNHFEFGSRINFSTRPNRDQPEFERRIRDGGEIRASKSLIEDEEELSNWVSGFRTGSSRGILKSDDEDEEDRSRGRNQEKRGIRNQVDSFRNKRYGGDRERGFNSRIQGKSSEASFRGRKETSFSRDREDEKGLRKREDLRLEDESSDEDVKSLVMGDIGDLLSEDDEEEDQDYDFLKKKAVSAFGFDKENVIEADKTRNANDSYLTKTRFDHYPLSPLSLKAIKDAGYETMTVVQEATLPIILKGKDVLAKAKTGTGKTVAFLLPSIEVVVKSPPTSPDNKRPPILALVICPTRELANQAATEANTLLKYHPSIGVQVVIGGTRLGLEQKRMQTNPCQILVATPGRLKDHIENTPGFATRLKGVKVLVLDEADHLLDMGFRKDIERIISAVPKERQTFLFSATVPEEVRQICLVALRRDHEFVNCVHEGTIETHQQVRQMHMIASLDRHFSLLYTLLREHIMGNVDYKVIVFCTTAMVTKLVADLLGELNLNVREIHSRKPQSYRTRVSNEFRKSKGLILVTSDVSARGVDYPDVTLVLQVGLPKDREQYIHRLGRTGRKGKEGEGILLLAPWEEYFLSSLKDLPITKSPLPSIDPETVKKVQKALCHVEMRNKEAAYQAWLGYYNSQKMIGRDKDRLVELANEFSRSMGLDNPPAIPKLILGKMGLKNVPGLRAK |  |  |  | binds |
